The list shows a part of the results.
Compound: CC1Cc2ccccc2N1C(=O)C1CCCN(C1)C(=O)CCl (mixture of isomers) [TRIM25 ligand 11 (diastereomer mixture)]
Assay: probe-labelled cysteine peptide fold change vs DMSO (competition) (log2 fold change); higher = less target engagement (more negative = stronger competition)
Details: THP-1, incubation time: 4 h
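Note: competitive chemoproteomic profiling in live THP-1 cells with an iodoacetamide desthiobiotin (IA-DTB) probe, comparing probe-labelled peptide intensities in compound-treated cells against DMSO-treated controls.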

By UniProt entry, the sequences of proteins in these tests, tags left out. Where a name states a change or a piece, a line headed by the entry shows the natural chain unless it says otherwise.
UniProt Q9NR12, whole entry, looked up: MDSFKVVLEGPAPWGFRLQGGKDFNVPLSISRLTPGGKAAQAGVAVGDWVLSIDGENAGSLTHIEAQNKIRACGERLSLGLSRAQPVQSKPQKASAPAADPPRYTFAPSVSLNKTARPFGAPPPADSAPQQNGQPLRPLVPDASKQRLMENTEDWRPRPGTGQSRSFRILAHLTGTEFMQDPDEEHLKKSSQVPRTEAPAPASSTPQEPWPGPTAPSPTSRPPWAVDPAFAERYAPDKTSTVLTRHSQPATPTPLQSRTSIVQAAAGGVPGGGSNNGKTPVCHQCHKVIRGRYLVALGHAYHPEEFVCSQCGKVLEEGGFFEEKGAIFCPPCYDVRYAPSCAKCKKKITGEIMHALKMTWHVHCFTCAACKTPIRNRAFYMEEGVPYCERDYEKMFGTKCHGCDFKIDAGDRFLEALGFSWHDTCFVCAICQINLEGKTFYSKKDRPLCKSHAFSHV
UniProt P11177, whole entry, looked up: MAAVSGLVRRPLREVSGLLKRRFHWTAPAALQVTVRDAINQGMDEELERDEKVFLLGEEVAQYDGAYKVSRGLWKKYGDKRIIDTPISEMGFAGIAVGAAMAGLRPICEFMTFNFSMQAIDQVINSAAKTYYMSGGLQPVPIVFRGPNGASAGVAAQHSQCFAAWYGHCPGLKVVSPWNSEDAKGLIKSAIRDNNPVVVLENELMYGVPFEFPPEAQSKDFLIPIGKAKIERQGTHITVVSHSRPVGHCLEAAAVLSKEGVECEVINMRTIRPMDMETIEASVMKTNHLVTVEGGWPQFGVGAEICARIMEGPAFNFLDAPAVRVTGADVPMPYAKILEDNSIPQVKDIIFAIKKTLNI
UniProt Q9BUH6, whole entry, looked up: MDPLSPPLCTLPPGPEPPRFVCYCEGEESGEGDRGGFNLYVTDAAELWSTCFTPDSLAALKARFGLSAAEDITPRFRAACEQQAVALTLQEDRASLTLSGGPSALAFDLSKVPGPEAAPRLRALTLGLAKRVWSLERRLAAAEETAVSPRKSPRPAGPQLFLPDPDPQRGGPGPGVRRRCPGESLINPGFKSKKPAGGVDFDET
UniProt Q14554: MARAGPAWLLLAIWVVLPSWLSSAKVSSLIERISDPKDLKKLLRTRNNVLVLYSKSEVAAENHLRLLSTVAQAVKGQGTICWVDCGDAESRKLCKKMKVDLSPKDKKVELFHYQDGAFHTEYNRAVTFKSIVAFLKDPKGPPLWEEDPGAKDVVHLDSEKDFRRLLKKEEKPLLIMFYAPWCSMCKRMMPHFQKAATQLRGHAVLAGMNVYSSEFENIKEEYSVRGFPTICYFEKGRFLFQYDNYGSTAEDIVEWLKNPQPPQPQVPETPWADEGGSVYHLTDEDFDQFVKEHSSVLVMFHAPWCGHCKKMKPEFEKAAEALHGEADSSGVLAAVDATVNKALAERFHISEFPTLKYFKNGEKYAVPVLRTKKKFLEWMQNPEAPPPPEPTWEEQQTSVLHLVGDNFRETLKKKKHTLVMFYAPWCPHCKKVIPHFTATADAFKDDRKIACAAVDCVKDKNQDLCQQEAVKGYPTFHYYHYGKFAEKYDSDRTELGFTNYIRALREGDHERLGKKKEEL
UniProt P49585: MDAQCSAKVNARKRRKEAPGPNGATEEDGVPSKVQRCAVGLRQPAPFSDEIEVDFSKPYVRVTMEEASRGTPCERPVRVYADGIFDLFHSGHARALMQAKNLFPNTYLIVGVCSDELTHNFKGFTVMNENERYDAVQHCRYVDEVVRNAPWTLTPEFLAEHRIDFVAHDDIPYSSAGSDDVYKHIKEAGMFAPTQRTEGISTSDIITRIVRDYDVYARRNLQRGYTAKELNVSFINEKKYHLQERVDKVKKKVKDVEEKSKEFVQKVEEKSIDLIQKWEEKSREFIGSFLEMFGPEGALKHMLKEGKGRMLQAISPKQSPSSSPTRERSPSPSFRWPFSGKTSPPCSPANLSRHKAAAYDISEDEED
UniProt P05166: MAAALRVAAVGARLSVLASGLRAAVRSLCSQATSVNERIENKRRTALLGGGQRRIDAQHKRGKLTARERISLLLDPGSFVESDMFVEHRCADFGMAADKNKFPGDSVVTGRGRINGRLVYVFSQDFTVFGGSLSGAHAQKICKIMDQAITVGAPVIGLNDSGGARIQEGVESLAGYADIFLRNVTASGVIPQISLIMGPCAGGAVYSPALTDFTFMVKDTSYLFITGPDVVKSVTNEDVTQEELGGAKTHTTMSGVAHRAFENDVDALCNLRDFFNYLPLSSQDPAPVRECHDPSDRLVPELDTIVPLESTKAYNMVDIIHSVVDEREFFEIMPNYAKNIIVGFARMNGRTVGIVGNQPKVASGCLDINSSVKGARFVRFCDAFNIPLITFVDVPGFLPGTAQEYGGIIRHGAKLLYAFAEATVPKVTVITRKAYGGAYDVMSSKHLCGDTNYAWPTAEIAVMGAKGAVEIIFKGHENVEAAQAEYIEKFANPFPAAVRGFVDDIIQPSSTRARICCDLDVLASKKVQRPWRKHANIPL
UniProt O00151: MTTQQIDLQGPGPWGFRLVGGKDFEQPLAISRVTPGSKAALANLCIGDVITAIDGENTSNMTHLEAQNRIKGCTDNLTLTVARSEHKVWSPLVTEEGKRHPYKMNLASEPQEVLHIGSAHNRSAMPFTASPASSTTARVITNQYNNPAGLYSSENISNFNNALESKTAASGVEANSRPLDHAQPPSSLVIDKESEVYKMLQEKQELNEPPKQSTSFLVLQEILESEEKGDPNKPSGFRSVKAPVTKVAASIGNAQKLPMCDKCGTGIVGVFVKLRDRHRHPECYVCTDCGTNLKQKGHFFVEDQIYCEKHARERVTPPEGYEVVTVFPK
UniProt Q8WUM4: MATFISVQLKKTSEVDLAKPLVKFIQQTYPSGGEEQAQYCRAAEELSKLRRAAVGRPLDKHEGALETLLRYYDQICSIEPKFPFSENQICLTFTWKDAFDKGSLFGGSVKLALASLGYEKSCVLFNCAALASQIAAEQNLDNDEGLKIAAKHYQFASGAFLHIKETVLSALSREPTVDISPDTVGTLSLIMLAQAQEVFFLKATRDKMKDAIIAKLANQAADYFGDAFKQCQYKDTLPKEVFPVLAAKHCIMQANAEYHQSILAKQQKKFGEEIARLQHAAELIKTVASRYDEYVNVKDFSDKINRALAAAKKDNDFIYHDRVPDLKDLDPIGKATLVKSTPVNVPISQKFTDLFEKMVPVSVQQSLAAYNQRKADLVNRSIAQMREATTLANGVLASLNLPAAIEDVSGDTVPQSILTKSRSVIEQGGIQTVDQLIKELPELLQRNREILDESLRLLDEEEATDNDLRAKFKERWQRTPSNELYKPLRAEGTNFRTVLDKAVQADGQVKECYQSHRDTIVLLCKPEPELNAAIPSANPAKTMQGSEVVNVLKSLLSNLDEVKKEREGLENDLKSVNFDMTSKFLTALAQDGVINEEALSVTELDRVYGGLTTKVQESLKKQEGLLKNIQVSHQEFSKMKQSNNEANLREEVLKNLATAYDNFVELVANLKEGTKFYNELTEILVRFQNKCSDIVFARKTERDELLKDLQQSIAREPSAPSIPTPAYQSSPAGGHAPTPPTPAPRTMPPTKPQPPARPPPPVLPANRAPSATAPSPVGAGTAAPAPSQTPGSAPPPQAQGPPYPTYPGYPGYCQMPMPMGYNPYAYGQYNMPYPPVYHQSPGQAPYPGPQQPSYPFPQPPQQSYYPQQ
UniProt Q9BRP1: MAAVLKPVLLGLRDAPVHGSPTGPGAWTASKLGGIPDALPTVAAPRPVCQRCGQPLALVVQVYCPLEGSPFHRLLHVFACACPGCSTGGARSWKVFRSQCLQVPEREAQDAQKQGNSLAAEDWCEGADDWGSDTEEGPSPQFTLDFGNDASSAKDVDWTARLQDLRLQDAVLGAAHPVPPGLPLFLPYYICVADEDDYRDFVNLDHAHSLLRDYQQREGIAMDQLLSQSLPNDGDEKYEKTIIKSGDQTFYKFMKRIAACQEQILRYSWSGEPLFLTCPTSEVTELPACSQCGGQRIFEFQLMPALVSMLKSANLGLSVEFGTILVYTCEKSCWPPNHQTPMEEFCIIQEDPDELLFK
UniProt Q15365, whole entry, looked up: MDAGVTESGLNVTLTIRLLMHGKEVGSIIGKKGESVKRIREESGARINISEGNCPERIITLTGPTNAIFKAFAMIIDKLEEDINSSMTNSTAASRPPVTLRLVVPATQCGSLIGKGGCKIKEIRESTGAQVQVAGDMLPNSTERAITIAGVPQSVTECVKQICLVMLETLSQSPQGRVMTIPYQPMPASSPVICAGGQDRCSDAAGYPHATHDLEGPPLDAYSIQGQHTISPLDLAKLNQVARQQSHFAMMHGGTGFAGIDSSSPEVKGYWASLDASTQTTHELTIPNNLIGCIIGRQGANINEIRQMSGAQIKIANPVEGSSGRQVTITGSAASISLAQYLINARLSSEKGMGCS
UniProt Q15154: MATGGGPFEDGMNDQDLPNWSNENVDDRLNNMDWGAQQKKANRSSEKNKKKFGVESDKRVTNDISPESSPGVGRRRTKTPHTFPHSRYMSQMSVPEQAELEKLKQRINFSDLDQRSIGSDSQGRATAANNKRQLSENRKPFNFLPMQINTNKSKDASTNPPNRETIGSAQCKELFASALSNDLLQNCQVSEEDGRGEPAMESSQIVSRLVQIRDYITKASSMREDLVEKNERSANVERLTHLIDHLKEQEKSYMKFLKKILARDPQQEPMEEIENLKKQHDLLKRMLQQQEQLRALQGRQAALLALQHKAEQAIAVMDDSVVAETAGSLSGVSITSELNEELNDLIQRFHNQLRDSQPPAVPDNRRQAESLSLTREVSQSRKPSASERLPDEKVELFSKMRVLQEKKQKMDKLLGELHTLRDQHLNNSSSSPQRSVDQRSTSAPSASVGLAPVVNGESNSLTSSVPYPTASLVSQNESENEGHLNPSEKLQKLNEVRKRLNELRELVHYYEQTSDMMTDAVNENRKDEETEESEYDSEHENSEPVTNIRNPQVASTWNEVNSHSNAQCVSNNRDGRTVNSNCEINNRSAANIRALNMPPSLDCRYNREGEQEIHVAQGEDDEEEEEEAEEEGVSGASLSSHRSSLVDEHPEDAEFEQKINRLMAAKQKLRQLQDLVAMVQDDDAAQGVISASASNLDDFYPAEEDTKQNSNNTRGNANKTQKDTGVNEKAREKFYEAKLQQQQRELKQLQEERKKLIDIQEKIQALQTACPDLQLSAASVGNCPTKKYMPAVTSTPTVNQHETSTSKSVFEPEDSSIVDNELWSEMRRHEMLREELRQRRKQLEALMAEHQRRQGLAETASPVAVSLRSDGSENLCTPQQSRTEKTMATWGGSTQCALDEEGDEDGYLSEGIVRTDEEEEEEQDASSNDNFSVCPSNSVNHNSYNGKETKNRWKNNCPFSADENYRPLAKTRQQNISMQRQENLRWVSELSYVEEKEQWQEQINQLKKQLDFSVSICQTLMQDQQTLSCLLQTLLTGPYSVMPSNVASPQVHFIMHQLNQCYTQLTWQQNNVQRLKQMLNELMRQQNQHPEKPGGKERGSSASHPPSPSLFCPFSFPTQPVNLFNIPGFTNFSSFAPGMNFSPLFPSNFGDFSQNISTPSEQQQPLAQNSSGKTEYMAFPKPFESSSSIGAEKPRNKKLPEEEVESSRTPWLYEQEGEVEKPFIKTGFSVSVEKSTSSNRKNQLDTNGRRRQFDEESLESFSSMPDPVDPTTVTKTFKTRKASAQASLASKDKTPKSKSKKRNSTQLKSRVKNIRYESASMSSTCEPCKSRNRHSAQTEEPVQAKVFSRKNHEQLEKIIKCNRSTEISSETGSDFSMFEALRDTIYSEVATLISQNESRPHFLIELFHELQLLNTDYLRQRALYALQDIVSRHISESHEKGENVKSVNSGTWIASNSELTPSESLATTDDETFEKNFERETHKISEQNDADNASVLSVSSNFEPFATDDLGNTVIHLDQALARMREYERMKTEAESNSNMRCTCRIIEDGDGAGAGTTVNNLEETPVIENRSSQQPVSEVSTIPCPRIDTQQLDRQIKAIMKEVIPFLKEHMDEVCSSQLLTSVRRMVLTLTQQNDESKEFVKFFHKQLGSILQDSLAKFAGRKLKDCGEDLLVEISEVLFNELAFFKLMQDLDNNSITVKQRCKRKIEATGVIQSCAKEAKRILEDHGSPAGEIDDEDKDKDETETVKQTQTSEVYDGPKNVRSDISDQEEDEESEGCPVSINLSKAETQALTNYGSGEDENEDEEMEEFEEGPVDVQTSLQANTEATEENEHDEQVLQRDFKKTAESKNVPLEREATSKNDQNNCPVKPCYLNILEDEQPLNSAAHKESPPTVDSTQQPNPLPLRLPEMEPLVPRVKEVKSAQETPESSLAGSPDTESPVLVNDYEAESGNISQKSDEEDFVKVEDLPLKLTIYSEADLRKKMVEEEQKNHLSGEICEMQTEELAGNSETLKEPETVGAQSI

Target | probe-labelled cysteine peptide fold change (10 µM) | probe-labelled cysteine peptide fold change (50 µM)
PDLIM7_Q9NR12_285_TPVCHQCHK (UniProt Q9NR12) | -0.0165 | 0.02
PDE12_Q6L8Q7_530_CNMSLTHFFK (UniProt Q6L8Q7) | 0.158 | -0.161
PDHB_P11177_249_QGTHITVVSHSRPVGHCLEAAAVLSK (UniProt P11177) | -0.0181 | -0.0863
PDPR_Q8NCN5_735_FFAFWGQDINNLTTPLECGR (UniProt Q8NCN5) | -0.113 | -0.454
PAXX_Q9BUH6_180_RCPGESLINPGFK (UniProt Q9BUH6) | -0.0792 | -0.0985
PDS5B_Q9NTI5_946_LPLEYMAICALCAK (UniProt Q9NTI5) | 0.233 | 0.0315
PDE4DIP_Q5VU43_375_QCVQFVEAAAHESEQQK (UniProt Q5VU43) | -0.0595 | -0.197
PDLIM2_Q96JY6_160_SFQSLACSPGLPAADR (UniProt Q96JY6) | -0.11 | -0.182
PDS5A_Q29RF7_92_LLVACCLADIFR (UniProt Q29RF7) | 0.0773 | 0.399
PDPR_Q8NCN5_357_LVNCPETFTPDMR (UniProt Q8NCN5) | -0.0721 | 0.18
PARP4_Q9UKK3_380_CKIEHVEQNTEEFLR (UniProt Q9UKK3) | -0.217 | -0.0964
PCK2_Q16822_417_EPCAHPNSR (UniProt Q16822) | 0.218 | 0.0236
PDCD11_Q14690_330+333_ACILCVHPR (UniProt Q14690) | -0.145 | 0.195
PDCD11_Q14690_1754_ALECLPSK (UniProt Q14690) | -0.0211 | 0.0845
PDCD4_Q53EL6_288_GTVDCVQAR (UniProt Q53EL6) | 0.164 | 0.233
PDCD11_Q14690_510_VLLCDPEAK (UniProt Q14690) | -0.0514 | -0.00699
PDLIM5_Q96HC4_449_SWHPEEFNCAHCK (UniProt Q96HC4) | 0.0011 | -0.0904
PDS5B_Q9NTI5_676_VLSFTHPISFHSAETFESLLACLK (UniProt Q9NTI5) | -0.00482 | -0.23
PDIA5_Q14554_465_NQDLCQQEAVK (UniProt Q14554) | -0.0391 | -0.0827
PDK3_Q15120_191_HIGSIDPTCNVADVVK (UniProt Q15120) | -0.0471 | -0.122
PCYT1A_P49585_37_CAVGLR (UniProt P49585) | -0.0464 | -0.0516

Target | probe-labelled cysteine peptide fold change (10 µM) | probe-labelled cysteine peptide fold change (50 µM)
PCCB_P05166_269_AFENDVDALCNLR (UniProt P05166) | 0.089 | -0.0226
PDHB_P11177_161_GPNGASAGVAAQHSQCFAAWYGHCPGLK (UniProt P11177) | 0.0327 | 0.0759
PDLIM4_P50479_72_GCHDHLTLSVSRPEGR (UniProt P50479) | 0.361 | 0.0886
PBRM1_Q86U86_1035_CVVMFVK (UniProt Q86U86) | 0.114 | 0.0732
PARP8_Q8N3A8_332_TDDVCVTK (UniProt Q8N3A8) | -0.114 | 0.0553
PASK_Q96RG2_991_AVELEGLAACEGEYSQK (UniProt Q96RG2) | -0.131 | -0.219
PDIA6_Q15084_297_TCEEHQLCVVAVLPHILDTGAAGR (UniProt Q15084) | -0.0708 | -0.00495
PDE1A_P54750_406_EAELGLPFSPLCDR (UniProt P54750) | 0.101 | 0.000655
PDE12_Q6L8Q7_268_ELESVCVVEAGPGTCTFDHR (UniProt Q6L8Q7) | 0.0977 | -0.0954
PDLIM1_O00151_73_GCTDNLTLTVAR (UniProt O00151) | -0.0386 | -0.103
PCCB_P05166_291_DFFNYLPLSSQDPAPVRECHDPSDR (UniProt P05166) | -0.277 | -0.347
PBRM1_Q86U86_1224+1228_EVFLSNLEETCPMTCILGK (UniProt Q86U86) | -0.101 | -0.263
PBK_Q96KB5_22_SVLCSTPTINIPASPFMQK (UniProt Q96KB5) | -0.0772 | -0.13
PDCD6IP_Q8WUM4_250_HCIMQANAEYHQSILAK (UniProt Q8WUM4) | 0.128 | -0.0702
PDCL3_Q9H2J4_127_QGIPLCALINQHLSGLAR (UniProt Q9H2J4) | 0.249 | 0.149
PDCD2L_Q9BRP1_260_IAACQEQILR (UniProt Q9BRP1) | 0.104 | 0.104
PAXX_Q9BUH6_24_FVCYCEGEESGEGDR (UniProt Q9BUH6) | 0.288 | 0.0211
PDF_Q9HBH1_132_QVLALELPEALCR (UniProt Q9HBH1) | -0.041 | -0.0973
PDLIM5_Q96HC4_420_TPMCAHCNQVIR (UniProt Q96HC4) | -0.109 | -0.143
PCNA_P12004_81_CAGNEDIITLR (UniProt P12004) | 0.12 | 0.0664
PDCD2L_Q9BRP1_80_LLHVFACACPGCSTGGAR (UniProt Q9BRP1) | 0.0401 | -0.0785

Target | probe-labelled cysteine peptide fold change (10 µM) | probe-labelled cysteine peptide fold change (50 µM)
PCBP1_Q15365_293_GYWASLDASTQTTHELTIPNNLIGCIIGR (UniProt Q15365) | -0.0964 | -0.174
PDS5B_Q9NTI5_573_QLEVLVSPTCSCK (UniProt Q9NTI5) | -0.0248 | 0.0151
PDLIM1_O00151_307_GHFFVEDQIYCEK (UniProt O00151) | 0.0336 | -0.0596
PBRM1_Q86U86_450_NQEYETLDHLECDLNLMFENAK (UniProt Q86U86) | 7.74e-06 | -0.0433
PDE3B_Q13370_475_RPHQEFGISSQGCYLNGPFNSNLLTIPK (UniProt Q13370) | 0.118 | -0.381
PDCD7_Q8N8D1_339_GVCPPASADETFTHHLQR (UniProt Q8N8D1) | 0.271 | 0.0549
PARP4_Q9UKK3_1293_LLDLSWTESCKPTATEPLFK (UniProt Q9UKK3) | -0.133 | -0.101
PDIA5_Q14554_231_GFPTICYFEK (UniProt Q14554) | -0.0352 | -0.1
PDPK1_O15530_181_KIGSFDETCTR (UniProt O15530) | -0.0663 | -0.0873
PCM1_Q15154_1717_KIEATGVIQSCAK (UniProt Q15154) | -0.0999 | -0.201
PDE12_Q6L8Q7_348_ELTGYNADVICLQEVDR (UniProt Q6L8Q7) | 0.000438 | 0.0235
PDIA3_P30101_85_VDCTANTNTCNK (UniProt P30101) | 0.0644 | 0.258
PCNT_O95613_974_HLSSLDSLESCYLSEFQTIR (UniProt O95613) | 0.0898 | -0.0306
PDLIM7_Q9NR12_388_AFYMEEGVPYCER (UniProt Q9NR12) | 0.0115 | 0.0577
PCM1_Q15154_1616_EHMDEVCSSQLLTSVR (UniProt Q15154) | -0.0625 | 0.111
PCYT1A_P49585_139_YDAVQHCR (UniProt P49585) | 0.00461 | 0.0443
PDSS2_Q86YH6_71_CLLSDELSNIAMQVR (UniProt Q86YH6) | -0.0743 | -0.206
PCF11_O94913_102_NLVATFICVFEK (UniProt O94913) | 0.0152 | 0.0398
PCK2_Q16822_325_VECVGDDIAWMR (UniProt Q16822) | 0.00283 | 0.0334
PDLIM7_Q9NR12_311_YLVALGHAYHPEEFVCSQCGK (UniProt Q9NR12) | -0.0266 | 0.12
PDCD2L_Q9BRP1_49_LGGIPDALPTVAAPRPVCQR (UniProt Q9BRP1) | -0.312 | -0.529

Target | probe-labelled cysteine peptide fold change (10 µM) | probe-labelled cysteine peptide fold change (50 µM)
PCNT_O95613_2446_TQEVPTACPDWR (UniProt O95613) | 0.0627 | -0.0988
PDIA6_Q15084_297_RTCEEHQLCVVAVLPHILDTGAAGR (UniProt Q15084) | -0.196 | -0.0884
PCID2_Q5JVF3_152_VCASDTR (UniProt Q5JVF3) | 0.185 | 0.222
PDCD6IP_Q8WUM4_691_CSDIVFAR (UniProt Q8WUM4) | -0.146 | 0.0707
PDHA1_P08559_273_FAAAYCR (UniProt P08559) | 0.138 | 0.012
PCBP2_Q15366_158_AITIAGIPQSIIECVK (UniProt Q15366) | -0.0406 | 0.0228
PARP1_P09874_295+298_VADGMVFGALLPCEECSGQLVFK (UniProt P09874) | -0.398 | 0.102
PDCD11_Q14690_361_LSCQNLGAVLDDVPVQGFFKK (UniProt Q14690) | -0.419 | -0.368
PDLIM2_Q96JY6_289_CSTSIANQAVR (UniProt Q96JY6) | 0.0403 | 0.178
PBLD_P30039_24_GNPAAVCLLENELDEDMHQK (UniProt P30039) | -0.0652 | -0.114
PDLIM1_O00151_283+286+289_HRHPECYVCTDCGTNLK (UniProt O00151) | -0.034 | 0.00381
PDCD11_Q14690_333_ACILCVHPR (UniProt Q14690) | -0.024 | 0.176
PDIA6_Q15084_291_TCEEHQLCVVAVLPHILDTGAAGR (UniProt Q15084) | 0.055 | 0.024
PARP1_P09874_845_NTHATTHNAYDLEVIDIFKIEREGECQR (UniProt P09874) | -0.308 | -0.0779
PDHB_P11177_263_EGVECEVINMR (UniProt P11177) | -0.0245 | -0.125
PDF_Q9HBH1_222_IIQHEMDHLQGCLFIDK (UniProt Q9HBH1) | -0.0352 | 0.0675
PAXX_Q9BUH6_80_AACEQQAVALTLQEDR (UniProt Q9BUH6) | 0.0367 | -0.0122
PCBP1_Q15365_194_VMTIPYQPMPASSPVICAGGQDR (UniProt Q15365) | 0.048 | 0.139
PCM1_Q15154_582_TVNSNCEINNR (UniProt Q15154) | -0.0918 | -0.291
PCK2_Q16822_63_LCQPEGIHICDGTEAENTATLTLLEQQGLIR (UniProt Q16822) | 0.0861 | 0.0794
PDCD11_Q14690_1062_SIKPTHVVVTLEDGIIGCIHASHILDDVPEGTSPTTK (UniProt Q14690) | 0.0843 | -0.025

Source: the supplement of paper PMC12067093, “Discovery and optimisation of a covalent ligand for TRIM25 and its application to targeted protein ubiquitination” (Chemical Science, 2025)
